Experimental data taken from doi:10.1101/2024.04.11.588828.
These are yes or no findings as the source states them, for the method shown. Binding seen in cells or lysates may run through a third protein. Some binding calls cover weakened binding; strength is not graded here.

Amino acid sequences for entries named in this document (tags omitted).
UniProt P08247: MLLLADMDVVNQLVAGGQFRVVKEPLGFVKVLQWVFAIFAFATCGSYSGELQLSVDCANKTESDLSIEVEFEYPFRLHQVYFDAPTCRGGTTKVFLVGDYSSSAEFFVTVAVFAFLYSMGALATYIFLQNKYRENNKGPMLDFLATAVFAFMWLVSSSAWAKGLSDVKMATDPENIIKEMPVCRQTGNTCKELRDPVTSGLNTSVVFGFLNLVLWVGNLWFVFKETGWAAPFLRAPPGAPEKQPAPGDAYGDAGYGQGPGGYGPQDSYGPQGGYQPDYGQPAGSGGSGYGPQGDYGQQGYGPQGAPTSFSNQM
UniProt P63027: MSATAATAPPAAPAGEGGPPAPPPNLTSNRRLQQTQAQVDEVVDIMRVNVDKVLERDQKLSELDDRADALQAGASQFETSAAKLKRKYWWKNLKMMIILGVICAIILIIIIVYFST

Biological target: human synaptophysin (Syp), LuTHy fusion (human) (UniProt P08247)
Assay: FRET or BRET

binding: binds
Substance: human VAMP2 (synaptobrevin), LuTHy fusion (from UniProt P63027 1-116)
